# Test results taken from article PMC3316532.
# Results are given in words; binding and its absence hold for the method and conditions named. In cells and extracts the contact can be indirect.
# Biological target: T1, Excitatory Amino Acid Carrier 1 (EAAC1), rat (rat (endogenous in hippocampus, cortex, heart and C6 glioma cells)) (UniProt P51907)
# T1 sequence: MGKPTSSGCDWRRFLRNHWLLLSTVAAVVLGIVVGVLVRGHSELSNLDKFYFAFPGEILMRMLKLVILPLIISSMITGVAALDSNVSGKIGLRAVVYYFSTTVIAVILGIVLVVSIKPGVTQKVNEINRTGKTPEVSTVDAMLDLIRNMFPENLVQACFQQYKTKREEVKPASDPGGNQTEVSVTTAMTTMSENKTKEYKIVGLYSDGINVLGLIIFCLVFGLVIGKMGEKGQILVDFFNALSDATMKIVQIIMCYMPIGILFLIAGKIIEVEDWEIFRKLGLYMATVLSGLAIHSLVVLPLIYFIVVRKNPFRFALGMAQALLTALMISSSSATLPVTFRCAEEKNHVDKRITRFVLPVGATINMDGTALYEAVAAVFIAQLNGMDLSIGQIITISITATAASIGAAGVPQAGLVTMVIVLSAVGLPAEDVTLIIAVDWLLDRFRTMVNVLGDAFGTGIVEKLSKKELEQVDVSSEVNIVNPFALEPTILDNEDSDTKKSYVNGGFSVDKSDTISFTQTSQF
# Experiment: co-IP; mitochondrial protein extracts from rat hippocampus and cortex; immunoprecipitation with mouse monoclonal anti-EAAC1 or anti-NCX1 (R3F1) antibody, A-Sepharose beads, western blot; normal mouse serum as negative control
substance,measurement,value
"adenine nucleotide translocase (ANT), rat",binding,no binding
